The results in this text go back to publication PMC12686931.

Chains of the proteins cited; added tags and fusions are not shown.
UniProt Q62167: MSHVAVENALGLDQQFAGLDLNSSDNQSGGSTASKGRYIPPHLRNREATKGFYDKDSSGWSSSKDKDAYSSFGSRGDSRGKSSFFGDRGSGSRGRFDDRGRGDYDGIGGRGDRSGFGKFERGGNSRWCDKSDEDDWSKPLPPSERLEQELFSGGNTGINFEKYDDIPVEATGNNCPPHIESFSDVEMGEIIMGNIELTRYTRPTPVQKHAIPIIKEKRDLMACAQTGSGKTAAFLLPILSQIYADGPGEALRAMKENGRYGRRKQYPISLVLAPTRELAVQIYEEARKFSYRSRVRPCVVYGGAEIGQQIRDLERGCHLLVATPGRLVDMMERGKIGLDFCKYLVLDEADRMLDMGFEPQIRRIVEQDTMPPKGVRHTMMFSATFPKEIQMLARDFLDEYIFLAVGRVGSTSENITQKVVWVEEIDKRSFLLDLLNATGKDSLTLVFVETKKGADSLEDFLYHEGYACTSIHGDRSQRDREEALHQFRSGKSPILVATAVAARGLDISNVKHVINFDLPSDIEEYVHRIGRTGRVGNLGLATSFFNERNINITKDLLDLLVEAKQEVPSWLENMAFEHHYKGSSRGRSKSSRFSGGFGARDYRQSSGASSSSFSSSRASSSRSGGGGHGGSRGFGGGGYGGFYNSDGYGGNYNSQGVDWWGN
UniProt O00571: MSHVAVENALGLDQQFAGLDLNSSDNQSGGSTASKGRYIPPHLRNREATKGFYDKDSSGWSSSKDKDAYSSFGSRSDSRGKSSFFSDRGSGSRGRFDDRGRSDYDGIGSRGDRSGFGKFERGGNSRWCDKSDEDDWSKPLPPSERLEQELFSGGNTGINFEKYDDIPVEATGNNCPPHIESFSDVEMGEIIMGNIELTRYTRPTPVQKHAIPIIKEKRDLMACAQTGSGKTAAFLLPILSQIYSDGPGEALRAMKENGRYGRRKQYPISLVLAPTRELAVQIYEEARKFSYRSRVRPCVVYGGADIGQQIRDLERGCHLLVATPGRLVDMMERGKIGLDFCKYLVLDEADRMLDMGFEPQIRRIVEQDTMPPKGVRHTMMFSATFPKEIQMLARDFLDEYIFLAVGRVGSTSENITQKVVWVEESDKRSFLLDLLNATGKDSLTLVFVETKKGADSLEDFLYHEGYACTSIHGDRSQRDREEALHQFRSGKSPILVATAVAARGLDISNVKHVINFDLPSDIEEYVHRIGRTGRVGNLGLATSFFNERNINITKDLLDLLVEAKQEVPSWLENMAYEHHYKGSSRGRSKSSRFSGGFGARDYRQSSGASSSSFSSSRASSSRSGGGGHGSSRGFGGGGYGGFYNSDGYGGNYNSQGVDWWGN
UniProt Q9JMK2: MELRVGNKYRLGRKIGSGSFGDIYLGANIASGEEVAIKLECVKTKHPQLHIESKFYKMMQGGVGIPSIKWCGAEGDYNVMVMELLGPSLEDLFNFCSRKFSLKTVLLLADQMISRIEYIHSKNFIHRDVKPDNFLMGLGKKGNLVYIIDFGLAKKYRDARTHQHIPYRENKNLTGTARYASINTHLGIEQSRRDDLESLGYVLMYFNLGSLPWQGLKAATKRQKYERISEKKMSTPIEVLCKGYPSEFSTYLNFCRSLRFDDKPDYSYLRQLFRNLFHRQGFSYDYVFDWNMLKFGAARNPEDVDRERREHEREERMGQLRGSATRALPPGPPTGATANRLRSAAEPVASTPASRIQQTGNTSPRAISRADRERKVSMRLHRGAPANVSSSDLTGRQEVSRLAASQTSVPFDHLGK

Holding throughout (experiment): co-IP; endogenous proteins in MDA-MB-231 and 4T1 lysates; primary antibodies coupled to protein A/G beads, overnight at 4 °C, immunoblot; for DDX3X-CK1ε control and ZMYND8-knockout cells
On the technique in general: A western blot detects proteins with antibodies after separation by electrophoresis.

For experiment [1], the target named is T1, Zinc finger MYND-type containing 8 (ZMYND8), endogenous, human (human (endogenous in MDA-MB-231)) (UniProt Q9ULU4).
T1 sequence: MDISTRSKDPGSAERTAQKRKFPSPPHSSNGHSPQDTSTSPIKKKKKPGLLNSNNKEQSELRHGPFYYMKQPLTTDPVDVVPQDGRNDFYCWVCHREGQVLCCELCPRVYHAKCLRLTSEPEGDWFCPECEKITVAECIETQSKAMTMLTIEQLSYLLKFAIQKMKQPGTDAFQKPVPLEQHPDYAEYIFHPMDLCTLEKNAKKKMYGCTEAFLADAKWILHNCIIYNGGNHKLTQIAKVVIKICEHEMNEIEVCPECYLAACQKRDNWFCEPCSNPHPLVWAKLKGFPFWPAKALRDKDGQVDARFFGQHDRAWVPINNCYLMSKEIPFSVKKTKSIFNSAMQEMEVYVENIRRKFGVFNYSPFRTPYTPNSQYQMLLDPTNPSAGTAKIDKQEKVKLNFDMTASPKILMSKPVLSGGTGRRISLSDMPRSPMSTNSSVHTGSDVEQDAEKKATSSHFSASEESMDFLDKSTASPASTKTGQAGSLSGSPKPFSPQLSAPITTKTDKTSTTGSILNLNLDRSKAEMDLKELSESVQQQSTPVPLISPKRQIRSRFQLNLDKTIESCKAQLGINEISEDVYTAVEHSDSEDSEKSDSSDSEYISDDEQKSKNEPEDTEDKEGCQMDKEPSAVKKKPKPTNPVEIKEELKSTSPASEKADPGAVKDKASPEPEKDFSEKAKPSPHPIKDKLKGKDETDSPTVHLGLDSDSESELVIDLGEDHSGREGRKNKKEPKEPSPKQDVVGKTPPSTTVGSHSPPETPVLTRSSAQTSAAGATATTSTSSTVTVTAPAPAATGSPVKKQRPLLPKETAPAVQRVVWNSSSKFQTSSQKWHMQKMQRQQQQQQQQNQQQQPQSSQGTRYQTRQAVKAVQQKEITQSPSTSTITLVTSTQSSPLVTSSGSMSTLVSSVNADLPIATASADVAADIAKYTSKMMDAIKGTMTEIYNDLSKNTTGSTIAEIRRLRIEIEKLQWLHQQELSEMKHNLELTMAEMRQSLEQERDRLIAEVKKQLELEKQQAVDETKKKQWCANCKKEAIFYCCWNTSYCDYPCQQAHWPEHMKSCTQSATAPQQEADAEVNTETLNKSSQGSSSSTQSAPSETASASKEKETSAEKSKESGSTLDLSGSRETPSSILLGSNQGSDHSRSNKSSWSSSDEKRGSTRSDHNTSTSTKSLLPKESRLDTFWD

Experiment [2] deals with T2, Zinc finger MYND-type containing 8 (ZMYND8), endogenous, mouse (mouse (endogenous in 4T1)) (UniProt A2A484).
T2 sequence: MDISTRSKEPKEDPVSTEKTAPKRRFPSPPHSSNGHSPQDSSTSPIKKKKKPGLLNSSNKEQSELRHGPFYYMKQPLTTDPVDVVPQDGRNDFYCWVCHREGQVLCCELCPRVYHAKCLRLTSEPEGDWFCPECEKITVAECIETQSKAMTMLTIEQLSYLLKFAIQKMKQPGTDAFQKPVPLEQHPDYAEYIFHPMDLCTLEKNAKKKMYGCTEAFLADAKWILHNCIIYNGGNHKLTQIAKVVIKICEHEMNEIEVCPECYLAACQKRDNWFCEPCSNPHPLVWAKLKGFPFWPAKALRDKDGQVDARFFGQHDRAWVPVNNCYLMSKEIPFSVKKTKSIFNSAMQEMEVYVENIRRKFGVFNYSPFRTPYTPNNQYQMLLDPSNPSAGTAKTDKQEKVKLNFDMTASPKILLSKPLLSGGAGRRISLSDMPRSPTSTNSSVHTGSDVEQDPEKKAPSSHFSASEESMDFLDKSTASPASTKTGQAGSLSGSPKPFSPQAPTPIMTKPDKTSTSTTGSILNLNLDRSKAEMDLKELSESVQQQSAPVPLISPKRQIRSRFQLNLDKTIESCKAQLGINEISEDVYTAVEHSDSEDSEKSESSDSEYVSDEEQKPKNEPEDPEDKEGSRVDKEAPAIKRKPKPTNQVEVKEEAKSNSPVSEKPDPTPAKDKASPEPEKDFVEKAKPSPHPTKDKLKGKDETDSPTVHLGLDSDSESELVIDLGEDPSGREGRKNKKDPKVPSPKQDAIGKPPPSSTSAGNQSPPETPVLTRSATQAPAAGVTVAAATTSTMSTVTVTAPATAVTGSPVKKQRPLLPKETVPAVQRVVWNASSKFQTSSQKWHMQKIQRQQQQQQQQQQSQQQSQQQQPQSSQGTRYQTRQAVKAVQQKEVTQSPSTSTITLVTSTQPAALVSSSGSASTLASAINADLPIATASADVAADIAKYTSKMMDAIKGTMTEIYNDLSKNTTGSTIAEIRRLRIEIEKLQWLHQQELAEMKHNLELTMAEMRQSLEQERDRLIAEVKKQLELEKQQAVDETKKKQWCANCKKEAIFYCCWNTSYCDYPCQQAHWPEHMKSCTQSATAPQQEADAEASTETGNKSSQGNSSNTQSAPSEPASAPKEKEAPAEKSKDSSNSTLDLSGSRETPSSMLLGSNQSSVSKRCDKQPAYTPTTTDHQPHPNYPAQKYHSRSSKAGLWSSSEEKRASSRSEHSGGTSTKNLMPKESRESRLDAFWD

In experiment [3] the target is DEAD-box helicase 3 X-linked (DDX3X), endogenous, mouse (mouse (endogenous in 4T1)) (UniProt Q62167).
Experiment [4] deals with T2, Zinc finger MYND-type containing 8 (ZMYND8), endogenous, mouse (mouse (endogenous in 4T1)). This is another data set of the same source.

Like-named read-outs stand apart in the source and are kept apart here. Results are given in words; binding and its absence hold for the method and conditions named. In cells and extracts the contact can be indirect. Some entries that bind do so weakly or less than the wild type.

Regarding “DEAD-box helicase 3 X-linked (DDX3X), endogenous, human (from UniProt O00571 1-662)”, the binding entry in experiment [1] is reported as “binds”.
Regarding “DEAD-box helicase 3 X-linked (DDX3X), endogenous, mouse (from UniProt Q62167 1-662)”, in experiment [2], the binding entry is “binds”.
With “Casein kinase 1 epsilon (CK1ε), endogenous, mouse (from UniProt Q9JMK2 1-416) (enzyme)”, the binding entry in experiment [3] is reported as “binds”.

B1: OTU domain-containing protein 4 (OTUD4), endogenous, mouse (enzyme, UniProt B2RRE7 1-1107)
chain: MEAAVGAPDGVDQGGVGPLEDETPMDAYLRKLGLYRKLVAKDGSCLFRAVAEQVLHSQSRHVEVRMACIRYLRENREKFEAFIEGSFEEYLKRLENPQEWVGQVEISALSLMYRKDFVIYQEPNVSPSHVTENNFPEKVLLCFSNGNHYDIVYPITYKDSSAMCQSLLYELLYEKVFKTDVSKIMMGLEASEVAEESNSEISDSEDDSCKSKSTAATDVNGFKPSGSENPKNNGNSADLPLSRKVLKSLNPAVYRNVEYEIWLKSKQAQQKRDYSIAAGLQYEVGDKCHQVRLDHNGKLSNADIHGVHSENGLVLSEELGKKHTPKNLKPPPPESWNTVSGKKMKKPNSGQNFHSDTDYRGPKNLNKPIKAPSALPPRLQHPSSGVRQHAFSSHSTGSQSQKSSSEHKNLSRMPSQITRKPDRERAEDFDHVSRESYYFGLSPEERREKQAIEESRLLYEIQNRDEQAFPALSSSSVSQSPSQNSNACVPRKSSHARDRKGSMRRADAEERKDKDSLRGHTHVDKKPEPSTLEISDDKCTRVSSPSKSKKECPSPVEQKPAEHIPLSNPAPLLVSPEVHLTPAVPSLPATVPAWPSEPTTFGPTGVPAQIPILSVTQTTGPDAAVSQAHLTPSPVPVSIQAVNQPLMPLPQTMSLYQDPLYPGFPCSEKGDRAIAPPYSLCQTGEDLPKDKNILRFFFNLGVKAYSCPMWAPHSYLYPLHQAYMAACRMYPKVPVPVYPQNTWFQEAPPAQSESDCPCTDAHYSLHPEASVNGQMPQAEMGPPAFASPLVIPPSQVSEGHGQLSYQPELESENPGQLLHAEYEESLSGKNMYPQQSFGPNPFLGPVPIAPPFFPHVWYGYPFQGFVENPVMRQNIVLPPDDKGELDLPLENLDLSKECDSVSAVDEFPDARVEGAHSLSAASVSSKHEGRVEQSSQTRKADIDLASGSSAVEGKGHPPTQILNREREPGSAEPEPKRTIQSLKEKPEKVKDPKTAADVVSPGANSVDRLQRPKEESSEDENEVSNILRSGRSKQFYNQTYGSRKYKSDWGSSGRGGYQHVRGEESWKGQPNRSRDEGYQYHRHVRGRPYRGDRRRSGMGDGHRGQHT
Turning to B1, in experiment [4], the binding result was “binds”.
